According to PubChem BioAssay AID651664 (NMMLSC, 2012):
In all, about 1,800 compounds went through this assay and fewer than 10 were called active.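 How the source made its calls: active means inhibition of granule release above a set limit; inactive means the rest.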 This is one part of the list.

Test: LAMP-1 surface externalization blockers in TALL-104 cells – cell-based, flow cytometry, validation set (AID 651664)
Conditions: TALL-104 LAMP-1 externalization, at 15.2 µM, stronger effect = higher value, stimulated with thapsigargin and PMA

Structure (SMILES)	inhibition
O=C(Nc1ccc2oc(-c3ccc(F)cc3)nc2c1)c1ccccc1F	inactive: 20.2%
CC(C(=O)Nc1ccc2c(c1)OCO2)N(c1ccc(Cl)cc1)S(C)(=O)=O (stereo not drawn)	inactive: 2.4%
O=C(CCl)Nc1cccn2ncnc12	inactive: -2.1%
CCOC(=O)c1sc(NC(=O)CSc2nnnn2-c2ccccc2)c(C(=O)OCC)c1C	inactive: 3.5%
Cc1ccc(SC(C)C(=O)Nc2ccccc2C(=O)N2CCOCC2)cc1 (stereo not drawn)	inactive: -4.5%
COc1ccc(N2CCN(c3nc(Cl)nc(N4CCOCC4)n3)CC2)cc1	inactive: -2.4%
CN(C)c1nc(C#N)nc(N2CCOCC2)n1	inactive: -2.3%
CCOc1c(Cl)cc(C(=O)Nc2ccccc2-c2ccccc2)cc1Cl	inactive: -0.6%
COC(=O)CN1C(=O)Nc2ccc(Br)cc2C1c1ccccc1Cl (stereo not drawn)	inactive: -2.6%
COC(=O)C(N)Cc1ccc(O)c(O)c1 (stereo not drawn)	inactive: -2.3%
COc1ccccc1N1CCN(Cc2cc(=O)n3ccsc3n2)CC1	inactive: 2.9%
O=C(NC(=S)N1CCCc2ccccc21)c1ccccc1	inactive: -2.6%
CCOC(=O)C(=Cc1ccc(OCc2ccc([N+](=O)[O-])cc2)c(OC)c1)C(=O)OCC	inactive: -3.8%
CC(=O)Nc1cccc(N2C(=O)CC(Cc3ccccc3)C2=O)c1 (stereo not drawn)	inactive: -1.9%
O=C(Nc1ccccc1C(F)(F)F)N1CCC(N2CCCCC2)CC1	inactive: -2.1%
Clc1ccccc1C1SCC2Nc3ccccc3CN21 (stereo not drawn)	inactive: 0.1%
CCCS(=O)(=O)N1CCCC(C(=O)NCc2ccco2)C1 (stereo not drawn)	inactive: -4.1%
O=c1[nH]c2c(s1)C(c1ccccc1)C1C3CCC(C3)C1S2 (stereo not drawn)	inactive: 0.8%
CCN1C(c2ccccc2)C(C)C(=O)C(C)C1c1ccccc1 (stereo not drawn)	inactive: -3.9%
Cc1cc(C)c(NC(=O)CSc2nnc(SCC(=O)Nc3c(C)cc(C)cc3C)n2N)c(C)c1	inactive: -2.6%
O=C(Nc1nc2c(s1)CCCC2)c1ccc(Br)o1	inactive: 3%
Cc1ccc(CN2C(=O)CCC2C(=O)NCCCN2CCCC(C)C2)cc1 (stereo not drawn)	inactive: -1.2%
C1CCN(c2nc(N3CCCCC3)nc(N3CCNCC3)n2)CC1	inactive: -1.5%
CC1(C)CC2CC(C)(CN2C(=O)COC(=O)c2ccc(Cl)cc2N)C1 (stereo not drawn)	inactive: 0.3%
OCCN1CCN(c2nc(NCc3ccco3)c3ccccc3n2)CC1	inactive: 3.9%

Filtered by structure: the entries above with a furan ring, fused or not (three)
Structure (SMILES)	inhibition
CCCS(=O)(=O)N1CCCC(C(=O)NCc2ccco2)C1 (stereo not drawn)	inactive: -4.1%
O=C(Nc1nc2c(s1)CCCC2)c1ccc(Br)o1	inactive: 3%
OCCN1CCN(c2nc(NCc3ccco3)c3ccccc3n2)CC1	inactive: 3.9%

Some of the entries so far, with bars between the fields.
Structure (SMILES) | inhibition
COc1ccc(N2CCN(c3nc(Cl)nc(N4CCOCC4)n3)CC2)cc1 | inactive: -2.4%
COC(=O)CN1C(=O)Nc2ccc(Br)cc2C1c1ccccc1Cl (stereo not drawn) | inactive: -2.6%

Later entries.

Structure (SMILES)	inhibition
Cc1cc(C)nc(N2C(=O)CC(C(=O)O)NC2=NCCc2c[nH]c3ccccc23)n1 (stereo not drawn)	inactive: 3.7%
CCCCn1ccnc1C(=O)c1cccc(S(=O)(=O)N2c3ccccc3CC2C)c1 (stereo not drawn)	inactive: -1%
NC(=S)Nc1cccc2cnccc12	inactive: 0.6%
CSc1nc(SCC(N)=O)c2c3c(sc2n1)CN(C)CC3	inactive: 2.5%
Cn1c(N2CCN(c3ccccn3)CC2)nc2c1c(=O)n(Cc1ccccc1Cl)c(=O)n2C	inactive: -1.7%
CC(C)(C)C(=O)Nc1ccc2oc(-c3cc(F)c(F)cc3Cl)nc2c1	inactive: 0.6%
O=C(CC(SCCO)c1ccc2c(c1)OCO2)c1ccco1 (stereo not drawn)	inactive: 1.2%
O=C(Nc1nc2ccccc2[nH]1)c1ccccc1	inactive: -2.2%
O=C(CCN1C(=O)C2CC=C(Cl)CC2C1=O)Nc1ccccc1O (stereo not drawn)	inactive: -0.5%
Cc1cccc(Oc2c(C=O)c3ccccc3n2C)c1	inactive: -5%
Cc1n[nH]c(C)c1SCC(=O)Nc1ccc(F)cc1	inactive: 2.8%
Cc1cc2cc(C(c3nnnn3Cc3ccco3)N3CCc4ccccc43)c(=O)[nH]c2cc1C (stereo not drawn)	inactive: -1.7%
CS(=O)(=O)c1ccc2nc(NC(=O)C3C4C=CC(C4)C3C(=O)O)sc2c1 (stereo not drawn)	inactive: 1.6%
CCN(CC)C(=O)N1c2ccccc2C=Cc2ccccc21	inactive: 1.6%
Cn1c(Sc2ccccc2Cl)c(C=O)c2ccccc21	inactive: 0.4%
O=C(CN1CC(=O)Oc2ccccc21)OCC(=O)c1cccc(Br)c1	inactive: -1.5%
COc1ccc(C(C)=O)cc1CN1C(=O)NC2(CCCCC2)C1=O	inactive: -0.4%
COc1ccc(/C=N/n2c(SC)nnc(C(C)(C)C)c2=O)cc1	inactive: 2.6%
CCOc1ccc(/C(O)=C2/C(=O)C(=O)N(CCOCCO)C2c2cccnc2)cc1 (stereo not drawn)	inactive: -2.1%
c1ccc(CC2CCN(c3nc4ccccc4n4cnnc34)CC2)cc1	inactive: 40.8%
COc1ccccc1NC(=O)CC1COc2ccccc2O1 (stereo not drawn)	inactive: -0.3%
O=C1c2sc3nc4ccccc4n3c2C(=O)N1c1ccccc1Cl	inactive: -0.8%
COc1ccc(NC(=O)CCCSc2nc(-c3ccco3)cc(C(F)(F)F)n2)cc1OC	inactive: -0.1%
Cc1ccc2[nH]c(=O)c(CN(CC3CCCO3)C(=O)c3ccncc3)cc2c1 (stereo not drawn)	inactive: -0.4%
CCCSc1nsc(NC(=O)C(c2ccccc2)c2ccccc2)n1	inactive: -0.5%

Looked up by structure from above:
Structure (SMILES)	inhibition
O=C(CCl)Nc1cccn2ncnc12	inactive: -2.1%
CCOc1ccc(/C(O)=C2/C(=O)C(=O)N(CCOCCO)C2c2cccnc2)cc1 (stereo not drawn)	inactive: -2.1%

Continuation.

Structure (SMILES)	inhibition
COc1ccc2c(c1)S/C(=C\C(=O)c1ccncc1)N2C	inactive: -1.5%
O=C(CSc1nnc(-c2ccco2)o1)NC(=O)C1COc2ccccc2O1 (stereo not drawn)	inactive: 4.2%
O=C(Nc1ccc(F)cc1)c1cccnc1N1CCOCC1	inactive: 0.7%
CCN1CCN(C(=S)c2ccc(OCC(=O)Nc3ccc(OC)cc3)cc2)CC1	inactive: -2.9%
CCCCC1OC23CCCCC2C(C#N)(C(=N)O3)C1(C#N)C#N (stereo not drawn)	inactive: -1.3%
Nc1n[nH]c(-c2ccc(Br)cc2)c1Cl	inactive: -6.2%
CC(C)(C)C(=O)C(CO)(Oc1ccc(Cl)cc1)n1cncn1 (stereo not drawn)	inactive: 45.8%
COc1ccc(S(=O)(=O)N(CCCN2CCOCC2)Cc2cccc3ccccc23)cc1	inactive: 5.5%
Cc1cccc(C)c1N(CC(=O)Nc1cc(Cl)ccc1Oc1ccccc1)S(C)(=O)=O	inactive: 1.5%
COc1cc(C(=O)Oc2ccccc2/C=N/NC(=O)c2ccc(Cl)cc2Cl)cc(OC)c1OC	inactive: -2.6%
COC(=O)c1cnn(-c2cc(Oc3ccccc3)ncn2)c1N	inactive: 5.4%
CCOc1ccc2[nH]c(=O)c(CN(Cc3cccnc3)C(=O)Nc3ccccc3OC)cc2c1	inactive: -0.5%
COc1cc2c(cc1OC)C(=O)CC(C)S2 (stereo not drawn)	inactive: 0.3%
CC(NC(=O)Nc1nnc(C(F)(F)F)s1)(C(F)(F)F)C(F)(F)F	inactive: -0.6%
Cn1c(=O)c2c(-c3ccc(C(C)(C)C)cc3)n(N3CCOCC3)cc2n(C)c1=O	inactive: 0.1%
C=CCN1C(=O)C2(C(C(=O)c3ccc(C)o3)=C(O)C(=O)N2CCCN2CCOCC2)c2ccccc21 (stereo not drawn)	inactive: -1.9%
O=C(O)CCCC(=O)Nc1ccccc1-n1ccnc1	inactive: 0.7%
O=C(Nc1ccc(Oc2ccc(NC(=O)C3CCCO3)cc2)cc1)C1CCCO1 (stereo not drawn)	inactive: 2.3%
COc1ccc2c(c1)Cc1sc(NC(=O)c3ccco3)nc1-2	inactive: -3.9%
CCOC(=O)c1cnc(SCC(=O)c2ccc(C)cc2)nc1N	inactive: -3.6%
CCOC1(OCC)N=C(N)C2(C#N)C(c3cccc(C)c3)C12C#N (stereo not drawn)	inactive: -0.4%
Cc1cc(/C=N/Nc2ccc([N+](=O)[O-])cn2)c(C)n1-c1ccccc1	inactive: 2.1%
Cc1cc(C(=O)Nc2ccccc2)c(C)o1	inactive: 5.7%
O=C(O)Cn1c(SCc2ccccc2)nc2ccccc21	inactive: 2.7%
O=C(c1ccc(Cl)cc1)c1coc2ccc(O)cc12	inactive: 1.2%

Structure (SMILES)	inhibition
O=C(c1ccccc1CCc1ccccc1)N1CCN(c2ccccn2)CC1	inactive: -2.3%
COCc1nnc(NC(=O)CSCc2ccccc2)s1	inactive: 5.1%
O=C1CC(C(=O)Nc2ccc(C(=O)O)cc2)C(c2ccccc2)O1 (stereo not drawn)	inactive: 3.1%
COc1ccc(CN(C)CCc2ccccn2)cc1OC	inactive: -1.6%
CC(C)(C)c1ccc(CN(Cc2ccco2)Cc2nnnn2C2CCCC2)cc1	inactive: 2.3%
Cc1cc(C(C)(C)C)cc(S(=O)(=O)NCCO)c1C	inactive: 4.5%
O=C(c1ccccc1)N(CCN1CCOCC1)C1(C(=O)Nc2ccccc2)CCCCC1	inactive: 5.2%
O=C(CSc1nnc(CNc2ccc(F)cc2)n1-c1ccccc1)N1CCOCC1	inactive: -4.6%
CCn1c(-c2ccccc2)c[nH]c1=S	inactive: -1.3%
COc1ccc(C(CNC(=O)c2ccc(N3CCCC3=O)cc2)N(C)C)cc1 (stereo not drawn)	inactive: -2%
Cc1ccc(CNC(=O)c2sccc2-n2cccc2)cc1	inactive: 0.6%
CCC(COC(=O)Nc1cccc(C)c1)NC(=O)OCC(C)C (stereo not drawn)	inactive: 0.7%
CCCC(=O)OC1CC(C)N(C(=O)c2ccccc2)c2ccc(C)cc21 (stereo not drawn)	inactive: -2.7%
O=C(COC(=O)c1cccnc1)c1ccc(Cl)c(Cl)c1	inactive: -1.3%
COc1ccc(-n2c(O)c(/C=N/n3cnnc3)c3ccccc3c2=O)cc1	inactive: 5.7%
Cc1nc2sc(C#N)c(N)c2c2c1CCCC2	inactive: -3%
CCn1c(SCC(=O)N2CCCc3ccccc32)nnc1-c1c[nH]c2ccccc12	inactive: -0.2%
Cc1ccccc1-c1nc2sc3c(c2c(=O)o1)CCC3	inactive: -1.1%
O=C(Nc1ccc2c(c1)oc1ccccc12)N1CCOCC1	inactive: -3.4%
O=C1CCC/C1=c1\s/c(=C\c2cccnc2)c(=O)n1-c1ccccc1	inactive: -0.5%
CCOC(=O)C1=C(C)N=C2SC(C)C(=O)N2C1c1ccc(OCC)c(OCC)c1 (stereo not drawn)	inactive: -1.1%
CCN(CC)C(=O)N1CCc2ccccc2C1CN1C(=O)c2ccccc2C1=O (stereo not drawn)	inactive: -0.8%
O=C(OCc1nnc(-c2ccccc2)o1)c1ccc2ccccc2n1	inactive: 0.3%
